Here are results for three substances from PMC3250422.

The chains behind the UniProt entries cited, without tags or fusion partners.
UniProt P47746: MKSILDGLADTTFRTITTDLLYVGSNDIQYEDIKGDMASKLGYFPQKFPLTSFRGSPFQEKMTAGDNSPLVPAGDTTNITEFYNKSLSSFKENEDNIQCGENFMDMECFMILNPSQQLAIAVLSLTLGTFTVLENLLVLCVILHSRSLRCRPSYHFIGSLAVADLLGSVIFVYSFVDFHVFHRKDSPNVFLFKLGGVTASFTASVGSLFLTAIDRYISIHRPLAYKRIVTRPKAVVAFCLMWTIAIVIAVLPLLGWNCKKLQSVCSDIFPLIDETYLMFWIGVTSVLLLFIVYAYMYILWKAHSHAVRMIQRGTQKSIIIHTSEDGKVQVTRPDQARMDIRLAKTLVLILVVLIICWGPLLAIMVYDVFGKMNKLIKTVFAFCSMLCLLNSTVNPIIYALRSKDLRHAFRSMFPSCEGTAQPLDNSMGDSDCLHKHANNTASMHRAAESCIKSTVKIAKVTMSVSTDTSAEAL
UniProt Q91YI4: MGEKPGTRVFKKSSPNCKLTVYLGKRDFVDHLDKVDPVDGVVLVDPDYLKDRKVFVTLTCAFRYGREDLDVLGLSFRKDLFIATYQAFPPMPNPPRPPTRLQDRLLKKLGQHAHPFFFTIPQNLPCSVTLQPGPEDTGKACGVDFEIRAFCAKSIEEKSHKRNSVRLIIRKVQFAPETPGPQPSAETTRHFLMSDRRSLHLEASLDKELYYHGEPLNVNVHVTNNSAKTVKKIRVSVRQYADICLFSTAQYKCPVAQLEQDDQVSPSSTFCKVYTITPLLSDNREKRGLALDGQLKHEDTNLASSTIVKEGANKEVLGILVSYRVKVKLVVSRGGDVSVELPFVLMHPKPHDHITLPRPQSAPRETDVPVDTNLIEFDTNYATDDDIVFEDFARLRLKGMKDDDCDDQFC

Common to all, as to experiment: co-IP; lysates (100–200 µg protein; 1% Triton, 150 mM NaCl, 1 mM EDTA, 1 mM EGTA, 50 mM Tris-Cl pH 7.4) of N2A^CB1R, N2A^CB1RDOR or N2A^CB1RDORΔ15 cells; 1 µg anti-CB1R (C-terminal) antibody on agarose beads, anti-myc or anti-FLAG overnight at 4°C; immunoblot; for arrestin3, cells starved 4 h and without or with 100 nM Hu210 for 5 min
For orientation: In western blotting, separated proteins are transferred to a membrane and probed.

The target of assay [1] is Type 1 cannabinoid receptor (mouse (endogenous in Neuro2A)) (UniProt P47746).
Assay [2] concerns the target myc-tagged delta opioid receptor (mouse) (UniProt P32300).
Assay [3] addresses Flag-tagged DORΔ15 (mouse) (UniProt P32300).

These are yes or no findings as the source states them, for the method shown. In cells and extracts the contact can be indirect. Some entries that bind do so weakly or less than the wild type.

Consider “myc-tagged delta opioid receptor (from UniProt P32300 1-372)”, for which the binding entry in assay [1] is recorded as “binds”. Turning to “Type 1 cannabinoid receptor (from UniProt P47746 1-473)”, the binding result in assay [2] and in assay [3] was “binds” in each case. Regarding arrestin3 (from UniProt Q91YI4 1-410), the binding entry in assay [1] is reported as “binds”.
